PubChem BioAssay AID1224826, NIAID – 2016
Aim: 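Knock-downs that raise or lower Tnf reporter signal after endotoxin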 (primary screen). Cell system: RAW264.7 G9 macrophages from mouse bearing reporters for p65 (GFP) and the Tnf promoter (mCherry). Reagent: siRNA pool against mouse genes, 100 nM. Time to read-out: 16 h of LPS stimulation, after 2 days of siRNA transfection. Treatment: bacterial lipopolysaccharide (Salmonella minnesota R595), 10 ng/ml. Measurement: 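Imaged Tnf reporter mCherry in nuclei, minus background, normalised per plate to the median and expressed as robust z-scores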. Direction: Tnf reporter robust z-score: higher = stronger Tnf promoter reporter signal after LPS. Hit rule: 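a well counts as active at a score of -1.3 or below (Tlr4 knock-down control median) or above 3 (raised signal); controls and wells holding fewer than 50 cells are excluded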. Meaning of the calls: active = Tnf reporter clearly lowered or raised; inactive = no clear change in Tnf reporter.
In all, the deposit lists about 17,000 reagents; below is an unselected part. About 1,110 of all reagents (6.6%) count as active. 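Active means lowered or raised reporter signal; replicate intensities are raw and not normalised per plate.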 Unmarked entries are inactive. Some reagents were tested in more than one well and are listed for each. Not all columns of the deposit are shown.

Target gene | PubChem SID | Tnf reporter robust z-score | fewer than 50 cells in well
Gpr35 | SID315472064 | -0.25 | enough cells in well
Rtl6 | SID315478287 | -1.49 (active) | enough cells in well
Fam151a | SID315478789 | -0.67 | enough cells in well
Wnt4 | SID315470045 | -0.09 | enough cells in well
Naip5 | SID315468096 | 0.83 | enough cells in well
Tnfsf11 | SID315469772 | 0.19 | enough cells in well
Paqr5 | SID315474838 | -0.47 | enough cells in well
Kif21b | SID315467620 | 0.12 | enough cells in well
Coq3 | SID315478756 | 0.04 | enough cells in well
Golgb1 | SID315478328 | 0.34 | enough cells in well
Tert | SID315469664 | 1.05 | enough cells in well
Ubr5 | SID315474129 | -1.24 | enough cells in well
Snrnp35 | SID315475254 | -1.74 (active) | enough cells in well
Psmc3 | SID315468746 | – | fewer than 50 cells per well; well left out of calls
Cnot10 | SID315475641 | -1.21 | enough cells in well
Kank4 | SID315479623 | 0.08 | enough cells in well
4932435O22Rik | SID315481172 | – | fewer than 50 cells per well; well left out of calls
Vmn1r180 | SID315479028 | -0.41 | enough cells in well
Zfp329 | SID315472915 | 1.01 | enough cells in well
Mcm5 | SID315467863 | 1.58 | enough cells in well
Gjb6 | SID315466916 | -0.82 | enough cells in well
Sntg1 | SID315474185 | – | fewer than 50 cells per well; well left out of calls
Nnt | SID315468201 | 0.65 | enough cells in well
Zkscan3 | SID315474617 | -0.36 | enough cells in well
Il21r | SID315472020 | -0.71 | enough cells in well
Eif3f | SID315472203 | -1.39 (active) | enough cells in well
Slc35b1 | SID315476880 | 1.17 | enough cells in well
Pramel6 | SID315481689 | 2.12 | enough cells in well
Cntf | SID315466037 | -0.9 | enough cells in well
Nt5c | SID315470835 | 0.81 | enough cells in well
Gk5 | SID315479266 | 0.58 | enough cells in well
Tuba3b | SID315469875 | -0.4 | enough cells in well
Cxxc5 | SID315472998 | 1.28 | enough cells in well
Csta2 | SID315475373 | 0.87 | enough cells in well
Chrna6 | SID315465257 | -0.48 | enough cells in well
Dock7 | SID315472954 | – | fewer than 50 cells per well; well left out of calls
Tmem127 | SID315473810 | -0.64 | enough cells in well
Cd52 | SID315470192 | -1.55 (active) | enough cells in well
Mcph1 | SID315479754 | 0.25 | enough cells in well
Hat1 | SID315476602 | 0.98 | enough cells in well
H2-M10.3 | SID315476925 | -0.29 | enough cells in well
Sspo | SID315479678 | -0.36 | enough cells in well
Apoa4 | SID315465465 | 2.47 | enough cells in well
Itpr1 | SID315467537 | -1.25 | enough cells in well
Pard6a | SID315471583 | 8.31 (active) | enough cells in well
Btrc | SID315465684 | -0.53 | enough cells in well
Ccl9 | SID315469145 | 0.2 | enough cells in well
Acadsb | SID315472696 | 1.28 | enough cells in well
Gmds | SID315478176 | 1.35 | enough cells in well
N4bp1 | SID315475719 | -0.06 | enough cells in well
Grpel2 | SID315468001 | 4.15 (active) | enough cells in well
Agk | SID315473936 | 0.92 | enough cells in well
Agk | SID315473936 | – | fewer than 50 cells per well; well left out of calls
Meis1 | SID315467895 | 1.83 | enough cells in well
Nudt11 | SID315471895 | -0.05 | enough cells in well
Or5b96 | SID315480351 | -0.15 | enough cells in well
Hilpda | SID315473834 | 0.8 | enough cells in well
Zfp316 | SID315471182 | -0.4 | enough cells in well
Epha1 | SID315466520 | 0.74 | enough cells in well
Inf2 | SID315474053 | 1.12 | enough cells in well
Txlnb | SID315481739 | – | fewer than 50 cells per well; well left out of calls
Or1o1 | SID315480179 | -0.82 | enough cells in well
Nudt16l1 | SID315472710 | 1.63 | enough cells in well
Cfap298 | SID315473357 | 3.36 (active) | enough cells in well
Ncaph2 | SID315471001 | -1.02 | enough cells in well
Or7g31 | SID315480188 | 1.14 | enough cells in well
Tmem70 | SID315474040 | -0.04 | enough cells in well
Commd3 | SID315465688 | -0.6 | enough cells in well
Abhd3 | SID315476566 | -0.81 | enough cells in well
Prrc1 | SID315474680 | – | fewer than 50 cells per well; well left out of calls
Or4c35 | SID315480594 | 2.62 | enough cells in well
Or2w4 | SID315480388 | 1.08 | enough cells in well
Zfp273 | SID315477751 | 0.21 | enough cells in well
Vmn1r73 | SID315477313 | – | fewer than 50 cells per well; well left out of calls
Or11j4 | SID315480314 | – | fewer than 50 cells per well; well left out of calls

In a second layout: 13 of the entries above.
Zfp316 [SID315471182]: Tnf reporter robust z-score = -0.4; fewer than 50 cells in well = enough cells in well
Epha1 [SID315466520]: Tnf reporter robust z-score = 0.74; fewer than 50 cells in well = enough cells in well
Inf2 [SID315474053]: Tnf reporter robust z-score = 1.12; fewer than 50 cells in well = enough cells in well
Txlnb [SID315481739]: fewer than 50 cells in well = fewer than 50 cells per well; well left out of calls
Or1o1 [SID315480179]: Tnf reporter robust z-score = -0.82; fewer than 50 cells in well = enough cells in well
Nudt16l1 [SID315472710]: Tnf reporter robust z-score = 1.63; fewer than 50 cells in well = enough cells in well
Cfap298 [SID315473357]: Tnf reporter robust z-score = 3.36 (active); fewer than 50 cells in well = enough cells in well
Ncaph2 [SID315471001]: Tnf reporter robust z-score = -1.02; fewer than 50 cells in well = enough cells in well
Or7g31 [SID315480188]: Tnf reporter robust z-score = 1.14; fewer than 50 cells in well = enough cells in well
Tmem70 [SID315474040]: Tnf reporter robust z-score = -0.04; fewer than 50 cells in well = enough cells in well
Commd3 [SID315465688]: Tnf reporter robust z-score = -0.6; fewer than 50 cells in well = enough cells in well
Abhd3 [SID315476566]: Tnf reporter robust z-score = -0.81; fewer than 50 cells in well = enough cells in well
Prrc1 [SID315474680]: fewer than 50 cells in well = fewer than 50 cells per well; well left out of calls
